For this test, the target named is MyD88 TIR domain produced as a recombinant protein fused to the SUMO3 protein (UniProt P55854). As to the kind of experiment: ELISA, recombinant MyD88 coated at 8 µg/ml, biotinylated linear peptide at 125 µg/ml, streptavidin-HRP. In general terms: An ELISA detects its analyte on a solid surface through an enzyme-linked reagent.

Results are given in words; binding and its absence hold for the method and conditions named. Some binding calls cover weakened binding; strength is not graded here.

With RDVLPGT (biotinylated (position of the biotin not stated)) [biotinylated linear BB loop peptide RDVLPGT], the binding result is given as “binds”.

Values taken from US20190185516A1 (YISSUM RESEARCH DEVELOPMENT COMPANY OF THE HEBREW …, published 2019).
